# Test results taken from PubChem BioAssay AID590 (National Center for Advancing Translational Sciences (NCATS), 2007).
# The whole screen tested about 59,000 compounds, of which about 6,500 (11%) were called active. Inconclusive means that the source gave no clear call. Such entries were picked first, then a sample of the others. Cut-off read from the data, not from the text of the source: active = max dye-equivalent concentration above about 10 nM; inconclusive = mostly about 1.1 nM to 9.6 nM; inactive = weaker than that.
# Experiment: qHTS Assay for Spectroscopic Profiling in A350 Spectral Region
# Details: Compound autofluorescence, 340/450 nm, Alexa 350 dye-equivalents; active compounds read high
row,SMILES,max dye-equivalent concentration
1,Cc1cc(=O)oc2cc(OCC(=O)N3CCCc4ccccc43)ccc12,active: 10 nM
2,CCOc1ccc(NC(=O)CC2CC(C)(C)OC2=O)cc1 (configuration not stated),inconclusive: 2.4 nM
3,NS(=O)(=O)c1ccc(N=Nc2ccc(O)c(C(=O)O)c2)cc1,inactive
4,CC(C)OC(=O)CC(=O)CSc1nc2c(cc1C#N)CCCC2,active: 19 nM
5,COc1cc(NC2c3ncccc3C(=O)N2Cc2ccco2)cc(OC)c1 (configuration not stated),inactive
6,Cn1c(SCC(=O)Nc2ccc3c(c2)oc2ccccc23)nnc1-c1ccccc1,inconclusive: 1.2 nM
7,Cc1ccc(-c2nnn(CC(=O)N(c3cccc(O)c3)C(C(=O)NC(C)(C)C)c3cccs3)n2)o1 (configuration not stated),inactive
8,CN(C)c1nc2n(c(=O)n1)CCO2,inactive
9,CCOc1ccc(C(=O)NCCn2cc(SCC(=O)Nc3cc(C)on3)c3ccccc32)cc1,inactive
10,CC1=C(C(=O)Nc2ccccc2)C(c2ccc3c(c2)OCO3)C2=C(CCCC2=O)N1 (configuration not stated),active: 150 nM
11,CCCc1nnc(NC(=O)CCC(=O)N2CCCCC2CC)s1 (configuration not stated),inconclusive: 5.6 nM
12,COc1ccc2c3c(ccc2c1)N[C@H](C(=O)O)CC3,active: 150 nM
13,COc1cccc(Nc2ncc3ncc(=O)n(Cc4cccs4)c3n2)c1,inactive
14,O=P(O)(O)COc1ccccc1P(=O)(c1ccccc1)c1ccccc1,inconclusive: 7 nM
15,O=C(NCc1ccco1)C(c1ccc(F)cc1)N(Cc1cccnc1)C(=O)Cn1nnc2ccccc21 (configuration not stated),inconclusive: 1.3 nM
16,Cc1ccc(NC(=O)CSC2=C(C#N)C(c3ccco3)C3=C(CC(C)(C)CC3=O)N2)cc1 (configuration not stated),inconclusive: 8.8 nM
17,Nn1c(SCC(=O)Nc2cccc(F)c2)nnc1C1CCCCC1,inconclusive: 2.4 nM
18,COCCn1c(N)c(C(=O)NCC2CCCO2)c2nc3ccccc3nc21 (configuration not stated),active: 2600 nM
19,CCNCCNC(=O)c1c(O)c2cccc3c2n(c1=O)CCC3,inconclusive: 4.7 nM
20,COC(=O)C1=C(C)OC(N)=C(C#N)C1c1ccccc1 (configuration not stated),inactive
21,Cc1cc(C)c2c(n1)nn1c(N3CCN(Cc4ccccc4)CC3)cc(C)nc21,active: 1800 nM
22,CC(C)NNC(=O)c1ccncc1,inconclusive: 2.9 nM

row,SMILES,max dye-equivalent concentration
1,CC(C)C[C@H](NC(=O)Nc1ccc(S(N)(=O)=O)cc1)C(=O)O,inconclusive: 7.1 nM
2,O=C1CSC(c2ccccn2)N1Cc1cn2ccccc2n1 (configuration not stated),inconclusive: 3.1 nM
3,Cc1cc(C)n(C(=O)c2cc3ccccc3c(=O)o2)n1,inconclusive: 1.1 nM
4,O=C(Nc1nc(-c2ccc(S(=O)(=O)N3CCCCCC3)cc2)cs1)c1cccs1,inconclusive: 9 nM
5,O=c1cnc2cnc(Oc3ccccc3)nc2n1C[C@H]1CCCO1,inactive
6,CCOC(=O)c1ccc(NC(=O)c2cc(S(=O)(=O)N3CCOCC3)ccc2O)cc1,inconclusive: 4.2 nM
7,CCOc1ccc(/C(O)=C2/C(=O)C(=O)N(CCOCCO)C2c2ccc(F)cc2)cc1 (configuration not stated),inactive
8,CCn1c(=O)cc(SCC(=O)NCCCN2CCN(c3ccccc3F)CC2)c2ccccc21,inactive
9,Cc1cc2n(n1)C(c1ccc3c(c1)OCO3)Nc1c(C)cccc1-2 (configuration not stated),active: 16 nM
10,Cc1nc(N2CCc3ccccc32)[nH]c(=O)c1CCC(C)C,inactive
11,CCCC(CCC)n1[nH]c(=O)c2c(C)cc(C)nc21,inconclusive: 1.7 nM
12,CC1CCN(c2nc3ccccc3nc2C(C#N)C(=O)NC2CCCCC2)CC1 (configuration not stated),inconclusive: 7.9 nM
13,COc1ccc(OC)c(S(=O)(=O)Nc2cnc3ccccc3c2)c1,inconclusive: 1.8 nM
14,CCCNC(=O)Cn1cnc2sc(C(=O)NCCN(CC)CC)c(C)c2c1=O,inactive
15,COCCn1c(=O)c(-c2ccc(OC)cc2)nc2cnc(OCc3ccccc3)nc21,active: 15 nM
16,Cc1cccc(C)c1NC(=O)N1CCC(c2nc3ccccc3o2)CC1,inconclusive: 1.4 nM
17,COc1ccc(C(=O)Nc2ccc(-c3cn4ccsc4n3)cc2)cc1S(=O)(=O)N1CCOCC1,inconclusive: 2.4 nM
18,CCOC(=O)N1CCN(C(=O)C(CC)n2nc(C)c3sc4ccccc4c3c2=O)CC1 (configuration not stated),inconclusive: 5.1 nM
19,CN(C)S(=O)(=O)c1ccc(N2CCOCC2)nc1,active: 23 nM
20,CCCCCc1nnc(NC(=O)Cc2cccs2)s1,inconclusive: 1.3 nM
21,CCOC(=O)C1CCN(C(c2cc3c(C)ccc(C)c3[nH]c2=O)c2nnnn2C2CCCCC2)CC1 (configuration not stated),inconclusive: 2.8 nM
22,N#CC1=C(N)Oc2n[nH]c(-c3ccc(F)cc3)c2C1c1ccncc1 (configuration not stated),inactive

row,SMILES,max dye-equivalent concentration
1,Cc1ccc(C(N)=O)cc1S(=O)(=O)Nc1cccc(C)c1C,inconclusive: 1.8 nM
2,COc1ccc2nccc(SCC(=O)O)c2c1,inactive
3,CCCCCc1nnc(NC(=O)C2CCCO2)s1 (configuration not stated),inconclusive: 2 nM
4,O=C(c1ccncc1)N1CCC2(CC1)CN(c1ccccn1)C2,inactive
5,Cc1cc(N2CCN(c3nnnn3-c3ccccc3)CC2)n2ncnc2n1,inactive
6,Cc1ccc2cc3c(N)c(C(=O)N4CCOCC4)sc3nc2c1,inconclusive: 1.4 nM
7,COc1cc(-c2nn3c(C4CCCCC4)nnc3s2)cc(OC)c1OC,inactive
8,COc1ccc2[nH]c3c(=O)n(CCCCC(=O)N4CCCC4)c(=S)[nH]c3c2c1,inconclusive: 6.3 nM
9,CCCCn1c(NC(=O)CC)c(C#N)c2nc3ccccc3nc21,active: 2900 nM
10,COC(=O)C1C(=O)NCC1c1ccccc1 (configuration not stated),inconclusive: 2.1 nM
11,COc1cccc(-c2csc3nnc(SCC(=O)c4ccc(NC(C)=O)cc4)n23)c1,inactive
12,Cc1noc(C)c1C(=O)N1CCC2(CCCN(c3ccncc3)C2)CC1,inactive
13,Cc1cccc(OCC(O)Cn2c(NCc3cccnc3)nc3c2c(=O)[nH]c(=O)n3C)c1 (configuration not stated),inconclusive: 2.1 nM
14,CC(=O)[C@H]1[C@@H]2C(=O)N(c3cccc(Cl)c3)C(=O)[C@@H]2[C@H]2c3ccccc3C=CN21,inconclusive: 6.9 nM
15,O=C(Nc1ncc2c(n1)CC(c1ccccc1)CC2=O)c1ccco1 (configuration not stated),inconclusive: 1.7 nM
16,O=c1cc(N2CCOCC2)oc2c(-c3ccccc3)cccc12,inactive
17,CCCCOc1ccc(/C=c2\sc3ncnn3c2=O)cc1,inconclusive: 3.5 nM
18,COc1ccc(OC)c(C(=O)CSc2nc3c(c(=O)n(C)c(=O)n3C)n2C(C)C)c1,inactive
19,COc1cccc(Cn2c(=O)c(-c3cccc(C#N)c3)nc3cnc(Nc4ccccc4)nc32)c1,inactive
20,COC(=O)c1sc(S(=O)(=O)NCc2cccs2)c(C(=O)OC)c1C,inconclusive: 5 nM
21,CCS(=O)(=O)N1CCC(C(=O)NCCN2CCN(Cc3ccccc3)CC2)CC1,inconclusive: 1.8 nM
22,Cc1ccc2cccc(O)c2[n+]1[O-],active: 16 nM

row,SMILES,max dye-equivalent concentration
1,O=C(Nc1ccccc1)N1CCC2(CC1)CCN(C(=O)c1cnccn1)CC2,inconclusive: 5.4 nM
2,Cc1nc2nc3c(c(=O)n2[nH]1)CCC3,inconclusive: 1.3 nM
3,COc1ccc(-c2nc3cnc(N4CCN(C)CC4)nc3n(Cc3ccc(F)cc3)c2=O)cc1,inconclusive: 4.2 nM
4,O=c1c2c(-c3ccco3)csc2nc(SCc2cn3cccnc3n2)n1-c1ccccc1,active: 11 nM
5,Cc1cnc(CNc2ccnc(-c3cccc(NS(C)(=O)=O)c3)n2)cn1,inactive
6,O=S(=O)(O)c1cc(N=[N+]([O-])c2cc(S(=O)(=O)O)c3ccccc3c2)cc2ccccc12,inconclusive: 7.9 nM
7,CCc1cc2c(=O)n(C(C)C(=O)OC3CCCCC3)cnc2s1 (configuration not stated),inconclusive: 1.9 nM
8,CCOC(=O)CCC(NC(=O)c1cncc(O)c1)C(=O)OCC (configuration not stated),inconclusive: 4.9 nM
9,Cc1cccc(-c2c3c(=O)n(C)c(=O)n(C)c3cn2-c2ccc(O)cc2)c1,inconclusive: 2.1 nM
10,CCOC(=O)C1CCN(c2ncnc3c2cnn3-c2ccc(OC)cc2)CC1,inconclusive: 5.1 nM
11,CC[C@H](C)[C@H](N)C1=N[C@H](C(=O)N[C@@H](CC(C)C)C(=O)N[C@@H](CCC(=O)O)C(=O)N[C@@H](C(=O)N[C@H]2CCCCNC(=O)[C@@H](CC(N)=O)NC(=O)[C@@H](CC(=O)O)NC(=O)[C@@H](Cc3cnc[nH]3)NC(=O)[C@@H](Cc3ccccc3)NC(=O)[C@@H]([C@@H](C)CC)NC(=O)[C@@H](CCCN)NC2=O)[C@@H](C)CC)CS1,inactive
12,O=C(CC(C(=O)N1CCc2ccccc21)n1ccnc1)NCC1CCCO1 (configuration not stated),inconclusive: 3.1 nM
13,NC(=O)C1CC(=O)N(Cc2ccc3c(c2)OCO3)C(=Nc2ccccc2)S1 (configuration not stated),inconclusive: 1.2 nM
14,O=S(=O)(c1ccccc1)c1nc(-c2ccco2)oc1N1CCOCC1,inactive
15,O=C(CSc1nnc(-c2ccco2)n1Cc1ccccc1)c1ccccc1,inactive
16,CCOC(=O)C1CCCN(c2ncnc3c2oc2ccccc23)C1 (configuration not stated),inconclusive: 2.2 nM
17,COc1ccc(C(=O)N2CCC3(CC2)CCN(c2ccncc2)CC3)cc1,inactive
18,CCn1cc(C(=O)NCc2ccco2)c(=O)c2cc(S(=O)(=O)N3CCCCCC3)ccc21,inactive
19,COc1ccc(C(=O)N(CCCO)Cc2cc3c(C)ccc(C)c3[nH]c2=O)cc1OC,inconclusive: 3.2 nM
20,COc1cccc(-c2nn(C)c3sc(C(=O)NCc4ccc(C)o4)cc23)c1,inconclusive: 1.4 nM
21,COCC(=O)N(Cc1cc2ccc(C)cc2[nH]c1=O)c1ccc(OC)cc1,inconclusive: 2.7 nM

# Arranged by molar mass (low to high): part of the list above
row,SMILES,max dye-equivalent concentration
8,CN(C)c1nc2n(c(=O)n1)CCO2,inactive
2,CCOc1ccc(NC(=O)CC2CC(C)(C)OC2=O)cc1 (configuration not stated),inconclusive: 2.4 nM
13,NC(=O)C1CC(=O)N(Cc2ccc3c(c2)OCO3)C(=Nc2ccccc2)S1 (configuration not stated),inconclusive: 1.2 nM
4,O=C(Nc1nc(-c2ccc(S(=O)(=O)N3CCCCCC3)cc2)cs1)c1cccs1,inconclusive: 9 nM
4,O=c1c2c(-c3ccco3)csc2nc(SCc2cn3cccnc3n2)n1-c1ccccc1,active: 11 nM
